Measurements published in paper PMC10248533, “Structures of Get3d reveal a distinct architecture associated with the emergence of photosynthesis” (The Journal of Biological Chemistry, 2023).
These are yes or no findings as the source states them, for the method shown. Binding seen in cells or lysates may run through a third protein. Some results given as binding are weak or reduced against the parent protein; the word gives no strength. Sequences can lack the tags named with a protein.

Biological target: T1, His6-TEV-tagged AtGet3dΔ1–57 (pET33b, TA protein capture assay) (Arabidopsis thaliana) (UniProt Q6DYE4)
T1 sequence: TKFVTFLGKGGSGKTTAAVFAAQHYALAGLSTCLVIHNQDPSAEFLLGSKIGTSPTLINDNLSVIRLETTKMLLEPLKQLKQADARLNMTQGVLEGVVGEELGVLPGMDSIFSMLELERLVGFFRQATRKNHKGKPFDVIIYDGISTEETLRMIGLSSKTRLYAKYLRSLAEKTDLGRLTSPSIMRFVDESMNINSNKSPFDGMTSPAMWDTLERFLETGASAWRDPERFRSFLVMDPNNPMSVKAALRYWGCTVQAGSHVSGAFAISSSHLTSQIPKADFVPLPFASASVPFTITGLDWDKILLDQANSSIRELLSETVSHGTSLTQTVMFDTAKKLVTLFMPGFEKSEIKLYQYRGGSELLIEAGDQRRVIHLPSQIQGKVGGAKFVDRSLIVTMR
Assay: pull-down; His6-tagged Get3d co-expressed with MBP-Sbh1 in E. coli; lysate passed over nickel resin, eluted with imidazole; Coomassie SDS-PAGE and Western blot (anti-His5, anti-MBP)

B1: maltose-binding protein (MBP)–tagged yeast TA protein Sbh1 (protein, UniProt P52870 1-82)
chain: MSSPTPPGGQRTLQKRKQGSSQKVAASAPKKNTNSNNSILKIYSDEATGLRVDPLVVLFLAVGFIFSVVALHVISKVAGKLF
For B1, the binding was “binds”.
